Values from PubChem BioAssay AID1224826 (NIAID, 2016).
Assay: 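Knock-downs that raise or lower Tnf reporter signal after endotoxin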 (primary screen). Cell system: RAW264.7 G9 macrophages from mouse bearing reporters for p65 (GFP) and the Tnf promoter (mCherry). Reagents: siRNA pool against mouse genes, 100 nM. Time to read-out: 16 h of LPS stimulation, after 2 days of siRNA transfection. Challenge: bacterial lipopolysaccharide (Salmonella minnesota R595), 10 ng/ml. Measured: 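Nuclear mCherry signal of the Tnf promoter reporter measured by imaging after background removal, scaled to each plate median and turned into robust z-scores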. Reading the numbers: Tnf reporter robust z-score: higher = stronger Tnf promoter reporter signal after LPS. Call rule: 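a well counts as active at a score of -1.3 or below (Tlr4 knock-down control median) or above 3 (raised signal); controls and wells holding fewer than 50 cells are excluded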. Calls: active = Tnf reporter clearly lowered or raised; inactive = no clear change in Tnf reporter.
The deposit covers about 17,000 reagents; this is a random part of them. Of all reagents, about 1,110 (6.6%) are marked active. 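Active means lowered or raised reporter signal; replicate intensities are raw and not normalised per plate.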 Reagents against one gene are numbered here. Further read-outs or replicates are left out here.

target gene,reagent,Tnf reporter robust z-score,fewer than 50 cells in well,call
Or8k35,1,3.15,enough cells in well,active
Ethe1,1,-0.09,enough cells in well,inactive
Obox2,1,0.5,enough cells in well,inactive
Snrpa,1,,fewer than 50 cells per well; well left out of calls,inactive
Scpep1,1,-0.56,enough cells in well,inactive
Naip6,1,1.75,enough cells in well,inactive
Gsta3,1,-0.95,enough cells in well,inactive
Ap5z1,1,,fewer than 50 cells per well; well left out of calls,inactive
Nras,1,0.32,enough cells in well,inactive
Ppp2r3a,1,0.08,enough cells in well,inactive
Snx15,1,,fewer than 50 cells per well; well left out of calls,inactive
Rdh11,1,-1.31,enough cells in well,active
Slc7a4,1,1.1,enough cells in well,inactive
Tmprss7,1,0.5,enough cells in well,inactive
Nherf1,1,-1.21,enough cells in well,inactive
Cd1d1,1,0.55,enough cells in well,inactive
Pik3c2b,1,3.26,enough cells in well,active
Or52n4,1,-0.86,enough cells in well,inactive
Stam2,1,-0.2,enough cells in well,inactive
Tmem154,1,-0.14,enough cells in well,inactive
Or10q12,1,2.95,enough cells in well,inactive
Elmod1,1,-0.2,enough cells in well,inactive
Brk1,1,0.47,enough cells in well,inactive
Mall,1,-0.97,enough cells in well,inactive
Tbc1d10b,1,0.99,enough cells in well,inactive
Rfx5,1,-0.65,enough cells in well,inactive
Ttbk1,1,-0.03,enough cells in well,inactive
Ubr7,1,-0.64,enough cells in well,inactive
Stk4,1,,fewer than 50 cells per well; well left out of calls,inactive
Adora3,1,-0.56,enough cells in well,inactive
Adora3,2,,fewer than 50 cells per well; well left out of calls,inactive
Emc2,1,1.89,enough cells in well,inactive
Aqp11,1,-0.62,enough cells in well,inactive
Zswim3,1,-1.71,enough cells in well,active
Kif18a,1,1,enough cells in well,inactive
Pcdhb2,1,-0.1,enough cells in well,inactive
Fpr1,1,-1.15,enough cells in well,inactive
Rnf208,1,-0.86,enough cells in well,inactive
Tmem176a,1,0.19,enough cells in well,inactive
Klhl18,1,2.25,enough cells in well,inactive
Zfp869,1,1.57,enough cells in well,inactive
Sorcs1,1,-0.51,enough cells in well,inactive
Cd209a,1,-1.08,enough cells in well,inactive
Sdad1,1,1.05,enough cells in well,inactive
Hk2,1,,fewer than 50 cells per well; well left out of calls,inactive
Nfkbib,1,-0.92,enough cells in well,inactive
Or10aa3,1,0.48,enough cells in well,inactive
Lce1m,1,2.72,enough cells in well,inactive
Or10g1,1,0.36,enough cells in well,inactive
Ifi27,1,-0.49,enough cells in well,inactive
Foxh1,1,0.7,enough cells in well,inactive
Dmwd,1,0.75,enough cells in well,inactive
Pot1a,1,0.01,enough cells in well,inactive
Erp44,1,0.25,enough cells in well,inactive
Pcdha6,1,-0.14,enough cells in well,inactive
Or4b1,1,0.61,enough cells in well,inactive
Clk3,1,-1.1,enough cells in well,inactive
Txnrd3,1,-0.29,enough cells in well,inactive

Reformatted: entries from further up.
Tmem154
- Tnf reporter robust z-score: -0.14
- fewer than 50 cells in well: enough cells in well
- call: inactive

Or10q12
- Tnf reporter robust z-score: 2.95
- fewer than 50 cells in well: enough cells in well
- call: inactive

Elmod1
- Tnf reporter robust z-score: -0.2
- fewer than 50 cells in well: enough cells in well
- call: inactive

Brk1
- Tnf reporter robust z-score: 0.47
- fewer than 50 cells in well: enough cells in well
- call: inactive

Mall
- Tnf reporter robust z-score: -0.97
- fewer than 50 cells in well: enough cells in well
- call: inactive

Tbc1d10b
- Tnf reporter robust z-score: 0.99
- fewer than 50 cells in well: enough cells in well
- call: inactive
